Experimental data: PubChem BioAssay AID602196 (INSERM, 2012)
The whole screen tested about 23,000 reagents; this is an unselected part. Over the whole deposit, 455 (2%) got an active call. 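Active includes both protection and sensitisation; some change values fall well beyond the stated -50 to +50 range.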 Unmarked entries are inactive. The numbers tell different reagents against one gene apart. The record does not give: the amount of reagent.

- Test: 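Knock-downs that protect lung cancer cells from cisplatin or sensitise them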
- Cell system: human A549 lung cancer cells
- Reagents: siRNA pair against human genes
- Duration: 48 h transfection before cisplatin; time from cisplatin to read-out not stated
- Treatment: cisplatin at a dose killing half of control-siRNA cells; exact dose and duration not given
- Measured: 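Cisplatin cell death as a shift from the 50% death seen with control siRNA; siRNAs toxic or growth-blocking alone scored 0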
- Scale: two-siRNA summed score (-2 to +2): higher = both siRNAs protect from cisplatin killing; -2 means both sensitise; mean protection from cisplatin (shift in death) and protection from cisplatin (shift in death), siRNA C and protection from cisplatin (shift in death), siRNA D: higher = protection from cisplatin killing
- Active means: 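Each siRNA scores 0 if harmful alone by LDH or WST-1, otherwise +1 if it reduces and -1 if it increases cisplatin killing; a gene is active when both siRNAs agree (sum +2 or -2)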
- Meaning of the calls: active = both siRNAs shift cisplatin killing the same way; inactive = no consistent shift, or siRNA harmful alone

gene knocked down	reagent	two-siRNA summed score (-2 to +2)	mean protection from cisplatin (shift in death) (%)	protection from cisplatin (shift in death), siRNA C (%)	protection from cisplatin (shift in death), siRNA D (%)
CDH23	1	0	3.9	3.5	4.2
LOC440110	1	0	-2.4	-0.4	-4.4
FABP5	1	0	9.2	23.2	-4.9
LOC346085	1	0	-2.6	-1.1	-4
LOC441964	1	0	7.7	6.6	8.8
KCNJ13	1	0	6.4	0.6	12.3
CRY2	1	0	2.6	0.7	4.6
CRY2	2	0	6.3	4.5	8.1
CBLB	1	1	23.8	14.8	32.9
LINC02243	1	0	0	3.7	-3.7
LOC440398	1	1	12.4	14.7	10
AQP6	1	0	7.1	3.3	10.8
HSD17B10	1	0	7.3	16.9	-2.2
FOXN4	1	0	12.6	2.7	22.6
LOC440682	1	0	12.1	7.4	16.9
LINC00311	1	0	-3.3	-17.7	11.1
OAZ2	1	0	10.3	11.8	8.8
MTBP	1	1	5.7	15.7	-4.3
PRAMEF8	1	0	-11.2	2	-24.4
NEDD8	1	-2 (active)	-33.3	-47.4	-19.2
UQCRC1	1	0	-3	-7.3	1.4
LOC389250	1	0	10.9	12.5	9.2
DLEU7	1	0	10.8	19.9	1.8
OR8K5	1	0	12.7	17.3	8.2
ANXA5	1	0	2	-8.2	12.1
GNL3	1	0	17.8	3.4	32.3
OR2L2	1	0	9.5	11.2	7.9
TIGD4	1	1	1.9	13	-9.2
ITGA4	1	0	-4.4	-1.2	-7.7
LOC440070	1	0	1.3	-3.3	6
THY1	1	0	7.9	4.1	11.7
NKX2-5	1	1	5.9	-3.2	15.1
KDM5D	1	0	5.7	0.4	10.9
PSMC5	1	1	35.1	35.9	34.2
MAFK	1	0	1.6	13.5	-10.3
CCL19	1	0	-1.5	-5.2	2.2
ZDHHC6	1	0	-0.5	3.4	-4.4
NAXD	1	0	-0.4	0	-0.8
THAP7	1	0	7.5	11.3	3.7
